{"sequences": {"note": "Chains of the proteins cited; added tags and fusions are not shown. Lines headed by an entry give the natural chain unless they say otherwise; changes in a name come on top.", "UniProt A0A0U2LC24": "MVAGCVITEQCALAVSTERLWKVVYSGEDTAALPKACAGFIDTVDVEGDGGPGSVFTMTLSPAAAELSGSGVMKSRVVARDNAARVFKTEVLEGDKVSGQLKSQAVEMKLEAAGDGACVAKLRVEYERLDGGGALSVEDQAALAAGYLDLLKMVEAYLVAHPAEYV"}, "source": "paper PMC6464244", "about": "“The fungal ribonuclease-like effector protein CSEP0064/BEC1054 represses plant immunity and interferes with degradation of host ribosomal RNA”", "note": "No constants are given. Whether binding was seen depends on the method and setting. Binding seen in cells or lysates may run through a third protein. For some assays here: Binding calls can cover weak binding; strength is not graded here."}
{"target": "T1, CSEP0064/BEC1054 (Blumeria graminis f.sp. hordei) (UniProt N1JJ94)", "T1 sequence": "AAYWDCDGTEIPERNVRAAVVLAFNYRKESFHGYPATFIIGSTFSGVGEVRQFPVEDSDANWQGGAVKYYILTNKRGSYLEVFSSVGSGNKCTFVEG", "assay": "split reporter"}
{"substance": "Glutathione-S-Transferase (GST) (barley (Hordeum vulgare)) (enzyme)", "binding": "no binding"}
{"substance": "eukaryotic Elongation Factor 1 Alpha (eEF1α) isoform 1 (barley (Hordeum vulgare))", "binding": "no binding"}
{"substance": "eukaryotic Elongation Factor 1 Alpha (eEF1α) isoform 3 (from UniProt A0A0U2K644)", "binding": "no binding"}
{"substance": "eukaryotic Elongation Factor 1 Gamma (eEF1γ) (barley (Hordeum vulgare))", "binding": "no binding"}
{"substance": "malate dehydrogenase (MDH) (barley (Hordeum vulgare)) (enzyme)", "binding": "no binding"}
{"substance": "nucleoside diphosphate kinase (NDPK) (barley (Hordeum vulgare)) (enzyme)", "binding": "no binding"}
{"substance": "ribosomal 40S subunit protein 16 (40S 16) (barley (Hordeum vulgare))", "binding": "no binding"}
{"target": "T1, CSEP0064/BEC1054 (Blumeria graminis f.sp. hordei)", "assay": "split reporter; BiFC in single barley leaf epidermal cells after particle bombardment; CSEP baits N-terminally tagged with the C-terminal half of mYFP, barley preys C-terminally tagged with the N-terminal half of mYFP, DsRED as transformation marker; imaged three days after bombardment; 9-45 cells per combination scored in four categories of YFP fluorescence"}
{"substance": "Pathogenesis-Related protein 10 (PR10) (from UniProt A0A0U2LC24)", "binding": "binds"}
